Publication PMC5672931 (British Journal of Cancer, 2017)

Assay: pharmacokinetics, plasma concentrations by LC-MS/MS
Conditions: human, intravenous, 1.85 mg m^−2

CCc1cnn2c(NCc3ccc[n+]([O-])c3)cc(N3CCCC[C@H]3CCO)nc12 [dinaciclib, Dinaciclib]
half-life: 1.42 h
